Measurements from the supplement of paper PMC3334620.
In all, about 33,000 sequences were measured (“E-score (-0.5 to 0.5)”: median about -8e-05, highest 2% from about 0.23 on). Some of the results follow.

Target: T1, Nrg2 (UniProt P38082)
T1 sequence: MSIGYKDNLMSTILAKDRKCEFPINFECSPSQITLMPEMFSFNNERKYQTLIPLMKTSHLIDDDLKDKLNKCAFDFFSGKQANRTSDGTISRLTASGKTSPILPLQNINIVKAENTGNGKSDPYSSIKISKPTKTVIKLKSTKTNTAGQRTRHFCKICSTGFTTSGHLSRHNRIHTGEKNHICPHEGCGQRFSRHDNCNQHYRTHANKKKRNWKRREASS
Assay: PBM E-score (8-mer binding enrichment) (E-score (-0.5 to 0.5)); higher = stronger / more preferred TF binding
Settings: protein concentration: 100 nM; construct: GST-full length
Outline: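 Bound GST-tagged yeast transcription factors, applied at about 100-200 nM to double-stranded universal all-10-mer Agilent arrays, were detected with fluorescent anti-GST. Scans were normalised with masliner. A modified Wilcoxon-Mann-Whitney statistic, the E-score, was assigned to each ungapped eight-base word pooled with its reverse complement by the Universal PBM Analysis Suite.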

Sequence | PBM E-score
GCTGACCC | -0.173
GAGATCGA | 0.147
GCGGCGAA | -0.0251
GGGCTTAA | -0.194
ATTGTAGA | 0.124
TAGTAGAA | 0.00186
GGGGTACC | -0.19
CTGGGGAC | -0.207
ACTTGGTA | 0.0189
ATACAGTG | 0.115
AGTTATTC | 0.0259
GTCGTGCA | 0.0294
AAAGACTG | -0.256
AAGCCTTA | -0.209
CCATACGC | 0.176
AGTGGTTA | 0.0663
AGGGTAGG | 0.128
AACACTTA | 0.0637
GCGAAAAC | -0.0554
CATGGATA | -0.0473
AATAACGT | 0.0816
ATAACAGG | 0.0173
CGTTAACA | 0.0761
CGGGAGTC | -0.0462
GAGCTAGC | 0.0528

Sequence | PBM E-score
AAGATGAG | -0.101
GATAGTGA | 0.128
CCAAGGGG | 0.00028
CTCGCTAC | 0.00922
AAACCATA | -0.047
GAGCCATA | -0.0732
CCACGCGA | 0.0879
AAGAGCAC | 0.0239
CGTGTCGC | 0.0103
ACAATTAA | 0.179
CACCAACC | -0.0422
ACAGTCAG | 0.11
CAATCAGA | -0.0298
AGAAGCGA | 0.0168
CACACTGG | -0.0291
CATCATTC | 0.0606
TGTAGTAA | -0.00939
AATTGAAA | 0.184
ATGTGAAG | 0.0267
GATAATCA | 0.119
CACTGAGG | -0.124
ATTCTGAC | -0.12
GCTCTAAC | -0.106
CCAGAATC | 0.0274
CTCGGCTC | -0.0484

Quoted at random: 4 entries already listed, in no set order.
Sequence | PBM E-score
CCAAGGGG | 0.00028
AAGATGAG | -0.101
AAACCATA | -0.047
CAATCAGA | -0.0298

Single entries from above:
PBM E-score with AATTGAAA is entered as 0.184
PBM E-score with CTCGCTAC is entered as 0.00922
PBM E-score with GCTCTAAC is entered as -0.106
PBM E-score with CCACGCGA is entered as 0.0879
PBM E-score with ATGTGAAG is entered as 0.0267

The list continues:

Sequence | PBM E-score
CAGAAGTA | 0.158
GCAGCCAA | 0.00266
CATGGGGC | 0.0617
ATGAGTGA | 0.169
AGGTAAGC | -0.117
TCAACCCA | 0.134
ACAAACGA | 0.167
CCAGCCGG | -0.128
TCAGTGGA | -0.0446
TCAAAAAA | 0.211
TGCACGAA | 0.0663
AGTGATAG | 0.0367
AAGTAACT | 0.129
ACTGTTAT | 0.169
ATCTGCAT | 0.177
GCCTCACA | -0.0233
CGAGTTGC | 0.106
ATCGACCG | -0.0487
CGAGAAGA | 0.0748
CGAAATCA | 0.244
AAGGCGAT | -0.157
CTGGGCGA | -0.0463
ATCGCGAA | 0.268
CTATCAGC | -0.00748
CCATTGAA | 0.0745

Sequence | PBM E-score
GGATCGTA | -0.0229
GTCGGCTA | 0.0877
GAGGGATA | -0.145
CTAACCCC | -0.17
GGATCTAA | -0.034
CGCTTACG | -0.284
ATTACGTG | 0.00099
ACACTCCA | -0.0789
AACCAGTC | -0.0183
AGGCGTGG | -0.244
CCAAGCAG | -0.0588
AACTAGCG | 0.206
AATCTGTG | 0.0299
AGACGGCG | 0.108
CTCATGAC | 0.071
AGTATCAT | 0.136
AGTCTTTA | -0.229
ATAGATAG | 0.0664
ACGCACAT | 0.106
TACGGGCA | -0.0372
CCAAGACA | 0.0563
CTCGCGAC | 0.192
AGCTGGAA | -0.172
CTTGACTA | -0.0721
CCGAAACA | 0.102

Sequence | PBM E-score
ACACGTCA | 0.0027
ATTCCTCA | -0.0108
ACGCATAA | 0.0866
ACACATTA | 0.00743
GCCACTAC | -0.0397
GGCCCTCA | -0.133
AGCCCTGG | -0.0338
AGTCGGAG | -0.0846
GGCACGTA | -0.133
ATACGGGG | 0.0395
CTTTCGAC | 0.0428
GCAACGGC | 0.0443
AAACTGGC | 0.0731
ATCAGAAC | -0.0385
CCTTGCGA | 0.142
AGGGGGTA | -0.308
AGCTGGCA | 0.0261
ATTATACC | 0.18
CTCTAGTC | -0.303
TGACCCAA | 0.1
TAGCCAAA | 0.0368
ATATTGCA | 0.113
AGTGCATG | -0.022
ATATCGCC | 0.0573
GCCTTCAA | -0.0972

Sequence | PBM E-score
ACTTTCAC | 0.0358
CAACCGTC | -0.152
AACACACT | 0.16
CCTAGCGC | 0.00435
ACAAAGCT | 0.11
AATAGTAG | 0.14
CGCAATTA | 0.084
GTTTGATA | 0.13
GTCATACA | 0.0721
AAAGTACG | 0.018
ACCTGCTC | 0.00487
AGCTGGCG | -0.158
CCCCACTC | -0.0662
TAGAGTGA | -0.166
CATGTAAC | 0.0421
AGACTAAT | -0.261
ACCAGATA | 0.0558
CACCAATA | -0.00198
GCAATTCA | 0.0732
GAGCCGTA | 0.196
CGCACGTC | -0.132
AAGTCTAT | -0.0746
CATTTGGG | -0.0533
CAAAGGAA | 0.0163
AGGTATCG | 0.0761

Sequence | PBM E-score
CGCTATTA | 0.0625
CTGGGGTC | 0.015
GACATCTC | -0.0239
AAGAGGTA | 0.0504
TATGCGAA | 0.0489
AACGCTTA | -0.0173
CGTTGTAG | 0.167
CTTAGGCA | -0.179
ACCGTCAC | -0.213
CTTGGCTA | 0.00941
CCCAGGAA | -0.0761
CCACCCTC | 0.147
ATTCGAAT | 0.111
GAAGACGA | 0.00571
ACGTTGCA | -0.0177
ATGCCGAA | 0.112
AGTGGACG | 0.217
ACTATTTG | 0.175
GACCCCGC | 0.112
AACCTGTA | 0.0935
AAATCTCT | -0.0459
GTAACTAC | 0.0907
CGACAGAC | 0.0422
CGGAGGCA | -0.134
ATTCCGAC | 0.0375

Sequence | PBM E-score
AGGTACAA | -0.0416
CGAAGCCA | -0.0815
AACCACAA | 0.132
GCGCCTTA | 0.0825
AGCAATTA | 0.105
AATGACTG | 0.0626
GGTGAACA | -0.17
AACTGAGG | 0.00921
ACGCAATC | -0.0578
ACGTTCCA | 0.118
AACTAGGT | 0.146
CCTGGACG | 0.00022
CGGAGACG | 0.0414
CGCCACTA | -0.0683
CGAACTGA | -0.00734
GAACTCCA | 0.0176
TCCACAGA | 0.145
CGCCTAAG | -0.189
ATCGTGCG | 0.272
CCAAGTCG | -0.13
GCAGATAA | -0.00928
AATTATGA | 0.134
AGCTTACG | -0.1
CCCACCTC | -0.116
GAGACAGC | 0.105

Sequence | PBM E-score
AATGCTGA | -0.0636
GCCGCTGA | -0.03
GTATAAGA | 0.0494
GACCCTCA | -0.116
ATATACGC | -0.0563
CGAAGTCC | 0.0551
TGCCCGCA | 0.148
ATTCTCTG | -0.0965
CGCCTCCG | -0.24
AGTTATCA | 0.0246
GAGCTATA | -0.155
AGAACTAT | 0.0901
TGTATCAA | 0.17
ACCCGAGC | -0.0712
GCCAGACA | -0.0912
AGTGCTGG | -0.0104
ATACCGGG | 0.086
CTACTGAC | -0.0473
GGTGTCAC | 0.00043
AGGCGAGG | -0.207
ACAAACTG | 0.00631
ATGTTATC | 0.132
CGGGAAGA | 0.156
AAAAACAG | 0.0637
AGGCAAAT | 0.093

Sequence | PBM E-score
GACTTGCA | 0.103
AGCAATAA | -0.00892
AACGGAAC | 0.137
TCGACCCA | 0.0467
ATGCATGC | 0.0867
AGATCGCT | -0.0997
ATTCAAAT | 0.147
CTCGCTAA | -0.0741
ATTACGGG | 0.0452
AGTTGTAT | 0.0726
GAATATGC | -0.126
GCAAGCCA | -0.123
TAAGATCA | -0.045
CTACGGAC | -0.224
GATACGGA | 0.0263
ATTGGCAC | -0.0221
GAGCGTTA | -0.0932
AGACACCA | 0.0737
AGAGTACA | -0.0423
CCTGTTGA | 0.0992
ACCCCGCA | 0.102
GCGGATCC | -0.0277
CCACAAGG | -0.0352
AATTCATG | 0.187
CCACTAGC | -0.164

Sequence | PBM E-score
CAATGCCC | -0.0428
CACCGATC | 0.0391
ACTCACAA | 0.141
AGGTGAAA | 0.17
GAACGCGC | 0.0678
AGAGTGGA | -0.11
GCGACGAC | -0.0673
GAGACCTA | 0.0208
GCCGTTCA | 0.0406
CCATAGAG | -0.0396
ACCACAAT | -0.0522
ATGCCGAC | -0.0164
GCCGCCGC | -0.169
CTACTAAC | 0.112
ACCTCTCA | 0.16
ATGGGGAC | 0.0116
CAAAGACG | 0.00487
CATGATTA | 0.206
AACGCCAC | -0.0716
ACTACCCG | 0.0609
CTCATCGA | 0.0273
AAAGCAGC | 0.0448
CAAGACAG | 0.0149
CAGCAATG | -0.0837
AGACGGTG | -0.249

Sequence | PBM E-score
CTACCTTC | -0.1
ACGAGTTC | 0.105
CCCAGCGA | 0.0149
ACACAGAT | 0.0714
GGCCAACA | -0.023
ACGAGAGT | 0.00058
CAATCGAC | -0.102
AGGTTTCC | -0.0376
AGCTTAGC | 0.0428
AAAGCTGA | -0.0432
GTTATTTA | 0.0978
ATGAATAG | 0.0625
CTCCTCCA | -0.0998
AGAGGAAC | -0.113
CCCTTAGG | -0.0646
GTGAAAAA | -0.0085
AGCGTTAG | -0.116
ATGAACAG | -0.159
ACTGACAG | 0.218
CAGGCGTC | -0.123
CCATAATC | 0.057
AGGCTGAC | -0.214
AAGCTAGC | -0.0325
ATGCCGTG | -0.0144
CAGAGAAG | 0.0986

Sequence | PBM E-score
GGAATAGA | 0.113
AAGGGTAT | 0.227
GAAGTTGA | 0.0978
CGACCGAA | -0.0283
AGATCTAA | -0.0519
AGAGTGCG | 0.0431
GCCCGTAA | -0.0485
CAATGCGA | 0.0348
CGCCCAAC | 0.0143
ACCGCTGG | -0.0888
AGGGACAG | -0.0226
TCATTGCA | 0.095
AGAGTAAT | 0.0751
GAACTCGC | -0.0686
TCTCAACA | 0.0641
CCCGCGCC | -0.0567
AGTAGCCG | 0.072
ACTTCCAG | -0.108
AATTAGCG | 0.0979
AGAACGTA | 0.0133
AGGTCCGA | 0.0912
CTAGCTCC | -0.153
ACTCTTCT | 0.0002
GAAGAGGA | -0.319
AATGTCTC | 0.0137

Sequence | PBM E-score
ATTCTAAG | -0.105
CCCTCCCC | 0.00621
AACAATGA | 0.0419
CCACCCCG | -0.0386
CCTCAAAC | 0.0223
AGACGACA | 0.0291
ATATCTGA | 0.183
ACCATAAG | -0.0907
GAGATTGA | 0.0287
ACCTGGAA | 0.203
ATGCCGCA | 0.172
CATTCCCA | -0.00455
CAGGGATA | 0.286
TTCACAAA | -0.0254
GACCAAGA | 0.0552
CAGACGTA | -0.181
AAACCGCC | 0.041
CCCAGCTA | -0.0456
GCTCATCC | 0.0527
